The source of these data is publication PMC11696430, “A Water-Soluble Small Molecule Boron Carrier Targeting Biotin Receptors for Neutron Capture Therapy” (ACS Omega, 2024).

This data set has as its system CT26 cells. Kind of data set: Intracellular localization by immunostaining / boron sensor. The class given is cell-based, mouse. Conditions: CT26, ca. 25 μg [B]/mL, 3 h.

Turning to `N[C@@H](Cc1ccc(B(O)O)cc1)C(=O)O` [BPA, 4-borono-L-phenylalanine, reference compound], the subcellular distribution result is given as “widely distributed throughout the cell, including the nucleus”.
